Experimental data published in PMC9192632.

Protein sequences, listed by entry. Tags and fused reporters are not part of them.
UniProt O60488: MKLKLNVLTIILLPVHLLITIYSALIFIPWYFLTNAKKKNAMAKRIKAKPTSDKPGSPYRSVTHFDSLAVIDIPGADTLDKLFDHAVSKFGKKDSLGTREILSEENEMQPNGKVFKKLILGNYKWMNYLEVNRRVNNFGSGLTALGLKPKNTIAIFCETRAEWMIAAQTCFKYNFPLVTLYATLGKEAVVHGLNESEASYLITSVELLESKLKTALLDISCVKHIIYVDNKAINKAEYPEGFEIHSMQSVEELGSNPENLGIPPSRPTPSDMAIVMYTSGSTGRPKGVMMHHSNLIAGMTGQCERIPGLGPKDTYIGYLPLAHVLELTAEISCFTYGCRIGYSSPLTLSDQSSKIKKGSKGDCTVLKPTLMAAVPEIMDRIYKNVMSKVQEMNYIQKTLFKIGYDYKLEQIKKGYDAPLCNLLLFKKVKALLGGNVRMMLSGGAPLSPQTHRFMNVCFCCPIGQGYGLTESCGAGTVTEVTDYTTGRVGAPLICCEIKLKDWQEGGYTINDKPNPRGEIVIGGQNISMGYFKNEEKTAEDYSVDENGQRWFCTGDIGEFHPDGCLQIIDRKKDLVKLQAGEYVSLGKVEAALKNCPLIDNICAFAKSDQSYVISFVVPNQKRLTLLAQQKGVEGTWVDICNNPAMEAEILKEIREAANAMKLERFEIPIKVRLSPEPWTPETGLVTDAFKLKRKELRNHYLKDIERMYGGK
UniProt O00429: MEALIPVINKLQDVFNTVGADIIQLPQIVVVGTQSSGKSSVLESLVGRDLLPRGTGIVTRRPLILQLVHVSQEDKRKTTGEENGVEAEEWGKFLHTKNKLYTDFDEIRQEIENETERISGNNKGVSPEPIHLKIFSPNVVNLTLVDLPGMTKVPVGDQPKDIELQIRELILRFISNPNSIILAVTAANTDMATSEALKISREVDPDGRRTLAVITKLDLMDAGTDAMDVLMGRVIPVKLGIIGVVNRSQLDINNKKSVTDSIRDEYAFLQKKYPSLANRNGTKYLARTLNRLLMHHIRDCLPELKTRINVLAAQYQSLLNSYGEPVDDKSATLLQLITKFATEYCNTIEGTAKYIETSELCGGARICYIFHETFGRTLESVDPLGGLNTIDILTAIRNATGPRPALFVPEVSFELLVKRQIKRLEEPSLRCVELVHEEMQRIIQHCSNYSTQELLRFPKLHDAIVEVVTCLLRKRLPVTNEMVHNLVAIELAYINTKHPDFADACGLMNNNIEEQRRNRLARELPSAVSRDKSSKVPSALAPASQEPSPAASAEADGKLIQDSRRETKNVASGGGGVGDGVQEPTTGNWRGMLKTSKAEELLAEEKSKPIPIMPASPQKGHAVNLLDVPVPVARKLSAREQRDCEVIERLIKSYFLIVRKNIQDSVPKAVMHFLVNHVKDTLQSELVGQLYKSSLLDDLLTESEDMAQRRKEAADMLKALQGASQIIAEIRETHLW

Molecular target: Acyl-coenzyme A (CoA) synthetase long-chain family member 4 (human (endogenous in PL1 and PG7 patient-derived glioma cells)) (UniProt O60488)
Assay: affinity purification with mass spectrometry; Acsl4 pull-down from PL1 cell lysate, SDS-PAGE with silver staining, whole-eluted samples examined by LC-MS/MS; compared with control

“dynamin-related protein 1 (from UniProt O00429 1-736)” was tested, and the binding was “binds”.

Results are given in words; binding and its absence hold for the method and conditions named. Binding seen in cells or lysates may run through a third protein. Here binding means that the protein was enriched with, or labelled near, the bait; the list need not be complete.
